Each structure is given as a SMILES string. Where a name gives a salt, the structure may show the parent alone. Read-outs that look alike come from different tables or passages of the source.

This note sets out measurements from patent US20150246004A1, “TRANSDERMAL DELIVERY DEVICE AND METHOD” (QuikMed Pty Ltd, priority 2008, published 2015).

One assay deals with person's skin. Conditions: device 10, lidocaine approx 2% in water.
In assay [1] the test system is skin of the inner left forearm. The following applies: 500 μL of 2% solution, pad applied 15 minutes.
A further assay has as its system skin of the forearm. The following applies: 500 μL in pad, 10 minutes application, 25 g needle.
For assay [2], the system named is skin of the deltoid region. The following applies: for pain rating on a pain scale from 1-10 during infiltration of Xylocaine: 2 ml 1% Xylocaine intradermally.
Assay [3] has as its system skin of the deltoid region.
Setting [4] is: Trial B: 0.5 ml of 2% saturated solution in distilled water, left deltoid, 10 minutes.
Setting [5] is: Trial D: 0.5 ml of 2% solution in saline, right deltoid, 15 minutes.

On to `CCN(CC)CC(=O)Nc1c(C)cccc1C` [lidocaine base, lidocaine], for which, in the assay with person's skin, the “time until anaesthesia is sufficiently induced after application of the pad” value is no more than 15 min and the “time until anaesthetic effect is substantially lost after removal of the pad” value was no more than 40 min. Besides, the “area of the skin anaesthetized, distance from the pad perimeter” value in assay [1] (after 10 minutes, prick test to around 1 mm) stood at 1 cm. Further, the “area of the skin anaesthetized, distance from the pad” value in assay [1] (after 20 minutes, prick test to around 1 mm) came to 2.5 cm. For the same compound, the “anaesthetic effect in prick test” value in assay [1] (after 30 minutes) is “the anaesthetic effect was lost”. The “result of needle insertion into treated site” value (“result” for short) in the assay with skin of the forearm (volunteer 2, forearm) is on record as “able to be inserted into the dermis before irritation was perceived”. Further, in assay [2] (setting [4]), the “pain felt during infiltration of Xylocaine” value was “No pain was felt” and the “pain rating on a pain scale from 1-10 during infiltration of Xylocaine” value was 1. In addition, the “depth of needle insertion” value in assay [3] (Trial A: 0.5 ml saturated solution (approx 2%) in distilled water, left deltoid, ten minutes, full length of needle shaft, no pain) was 25 mm. Moreover, in assay [3] (Trial A: 0.5 ml saturated solution in distilled water, left deltoid, ten minutes, needle to 25 mm), the “pain felt on needle insertion” value is reported as “did not feel any pain”.

In the case of `CCN(CC)CC(=O)Nc1c(C)cccc1C` [lidocaine hydrochloride], in the assay on skin of the forearm (volunteer 1, forearm), the “result” value is “immediate needle prick pain and no insertion was performed”. Also, in the assay with skin of the forearm (volunteer 2, forearm, hydrochloride), the “result” value was “immediate needle prick pain and no insertion was performed”. In assay [2] (setting [5]), the “pain felt during infiltration of Xylocaine” value is “Marginal pain was felt” and the “pain rating on a pain scale from 1-10 during infiltration of Xylocaine” value is given as 3-4. The “depth of needle insertion before marginal pain was felt” value in assay [3] (Trial C: 0.5 ml of 2% solution in saline, right deltoid, 15 minutes) is “approximately 15 mm”.
